The other results are listed elsewhere or left out.
compound: c1cn2cc(-c3ccc4cn[nH]c4c3)nc(Nc3ccc(N4CCOCC4)cc3)c2n1 [entospletinib]; experiment: log2 fold change, soluble protein after heating vs DMSO (PISA); higher = thermal stabilisation; K562 cells, 10 uM, 30 min; active = over 0.2 and 3.5 SD of the protein, either way, in both replicates (recomputed)
Method in brief: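 K562 cells at 2×10^6 cells/mL were treated with 10 μM compound for 30 min. Aliquots were heated for 3 min across 48°C-58°C, pooled, and extracted in PBS with 0.5% NP-40 at 4°C; soluble protein was the supernatant after 21,000xg for 90 min. Soluble protein was quantified by TMTpro 16plex LC-MS/MS with channel sums equalised, and reported as log2 fold change in thermal stability against DMSO controls, with values from duplicates.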

Sequences of proteins named here, by UniProt entry; tags and fusion partners are left off. A change or cut given only in a name is not applied to a line headed by its entry.
UniProt Q9BRT9, whole entry, looked up: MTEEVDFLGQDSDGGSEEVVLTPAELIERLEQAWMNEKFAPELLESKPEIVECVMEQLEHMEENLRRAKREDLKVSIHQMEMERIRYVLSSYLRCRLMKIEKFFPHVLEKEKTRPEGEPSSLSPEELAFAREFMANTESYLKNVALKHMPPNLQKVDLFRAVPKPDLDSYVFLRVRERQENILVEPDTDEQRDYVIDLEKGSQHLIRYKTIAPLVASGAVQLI
UniProt Q9BXV9: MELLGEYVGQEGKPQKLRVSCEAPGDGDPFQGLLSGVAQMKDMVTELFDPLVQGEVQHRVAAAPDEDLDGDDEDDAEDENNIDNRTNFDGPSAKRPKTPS
UniProt P62993, whole entry, looked up: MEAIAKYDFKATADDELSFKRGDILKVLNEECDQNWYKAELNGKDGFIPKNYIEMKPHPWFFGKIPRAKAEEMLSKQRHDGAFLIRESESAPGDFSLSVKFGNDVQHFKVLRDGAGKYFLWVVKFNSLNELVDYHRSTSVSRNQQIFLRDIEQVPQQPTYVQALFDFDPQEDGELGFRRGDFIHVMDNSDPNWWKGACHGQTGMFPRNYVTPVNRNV
UniProt Q3T906: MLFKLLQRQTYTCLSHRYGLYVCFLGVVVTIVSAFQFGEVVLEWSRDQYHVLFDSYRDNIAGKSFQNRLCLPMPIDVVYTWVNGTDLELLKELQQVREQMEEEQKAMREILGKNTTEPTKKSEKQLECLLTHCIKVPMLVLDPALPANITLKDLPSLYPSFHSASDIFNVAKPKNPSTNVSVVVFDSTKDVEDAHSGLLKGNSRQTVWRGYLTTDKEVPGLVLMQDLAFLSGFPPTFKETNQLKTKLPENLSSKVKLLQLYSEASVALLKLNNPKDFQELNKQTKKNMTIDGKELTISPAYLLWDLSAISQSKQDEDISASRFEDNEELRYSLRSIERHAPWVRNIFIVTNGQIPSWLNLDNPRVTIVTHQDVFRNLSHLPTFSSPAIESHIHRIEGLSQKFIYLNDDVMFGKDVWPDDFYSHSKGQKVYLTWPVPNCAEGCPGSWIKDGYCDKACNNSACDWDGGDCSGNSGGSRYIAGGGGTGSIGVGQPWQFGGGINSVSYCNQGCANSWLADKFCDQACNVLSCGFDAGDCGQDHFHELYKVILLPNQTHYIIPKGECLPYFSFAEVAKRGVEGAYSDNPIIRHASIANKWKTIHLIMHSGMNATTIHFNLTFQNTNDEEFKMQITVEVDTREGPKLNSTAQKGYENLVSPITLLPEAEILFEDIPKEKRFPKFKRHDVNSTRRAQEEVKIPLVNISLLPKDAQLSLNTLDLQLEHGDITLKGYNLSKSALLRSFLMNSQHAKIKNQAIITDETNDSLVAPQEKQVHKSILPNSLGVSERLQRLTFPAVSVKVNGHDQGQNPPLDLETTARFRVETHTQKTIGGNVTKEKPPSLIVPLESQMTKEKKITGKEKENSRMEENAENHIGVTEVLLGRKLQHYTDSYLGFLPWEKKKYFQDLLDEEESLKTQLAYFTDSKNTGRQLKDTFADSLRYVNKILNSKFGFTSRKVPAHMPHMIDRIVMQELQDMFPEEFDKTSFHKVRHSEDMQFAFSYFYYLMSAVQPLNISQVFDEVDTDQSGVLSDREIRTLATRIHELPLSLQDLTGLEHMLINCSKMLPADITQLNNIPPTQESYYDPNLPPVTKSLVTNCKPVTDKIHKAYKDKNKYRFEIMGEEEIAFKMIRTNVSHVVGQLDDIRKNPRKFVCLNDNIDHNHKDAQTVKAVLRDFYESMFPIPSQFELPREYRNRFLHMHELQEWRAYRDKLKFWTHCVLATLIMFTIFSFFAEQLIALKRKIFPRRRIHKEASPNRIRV
UniProt O75496: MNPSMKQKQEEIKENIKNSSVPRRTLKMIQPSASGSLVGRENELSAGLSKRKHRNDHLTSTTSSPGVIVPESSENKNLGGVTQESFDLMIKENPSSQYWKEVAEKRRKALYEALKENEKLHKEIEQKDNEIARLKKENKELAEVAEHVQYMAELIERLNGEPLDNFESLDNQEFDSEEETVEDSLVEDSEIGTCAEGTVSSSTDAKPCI
UniProt Q7Z2K8: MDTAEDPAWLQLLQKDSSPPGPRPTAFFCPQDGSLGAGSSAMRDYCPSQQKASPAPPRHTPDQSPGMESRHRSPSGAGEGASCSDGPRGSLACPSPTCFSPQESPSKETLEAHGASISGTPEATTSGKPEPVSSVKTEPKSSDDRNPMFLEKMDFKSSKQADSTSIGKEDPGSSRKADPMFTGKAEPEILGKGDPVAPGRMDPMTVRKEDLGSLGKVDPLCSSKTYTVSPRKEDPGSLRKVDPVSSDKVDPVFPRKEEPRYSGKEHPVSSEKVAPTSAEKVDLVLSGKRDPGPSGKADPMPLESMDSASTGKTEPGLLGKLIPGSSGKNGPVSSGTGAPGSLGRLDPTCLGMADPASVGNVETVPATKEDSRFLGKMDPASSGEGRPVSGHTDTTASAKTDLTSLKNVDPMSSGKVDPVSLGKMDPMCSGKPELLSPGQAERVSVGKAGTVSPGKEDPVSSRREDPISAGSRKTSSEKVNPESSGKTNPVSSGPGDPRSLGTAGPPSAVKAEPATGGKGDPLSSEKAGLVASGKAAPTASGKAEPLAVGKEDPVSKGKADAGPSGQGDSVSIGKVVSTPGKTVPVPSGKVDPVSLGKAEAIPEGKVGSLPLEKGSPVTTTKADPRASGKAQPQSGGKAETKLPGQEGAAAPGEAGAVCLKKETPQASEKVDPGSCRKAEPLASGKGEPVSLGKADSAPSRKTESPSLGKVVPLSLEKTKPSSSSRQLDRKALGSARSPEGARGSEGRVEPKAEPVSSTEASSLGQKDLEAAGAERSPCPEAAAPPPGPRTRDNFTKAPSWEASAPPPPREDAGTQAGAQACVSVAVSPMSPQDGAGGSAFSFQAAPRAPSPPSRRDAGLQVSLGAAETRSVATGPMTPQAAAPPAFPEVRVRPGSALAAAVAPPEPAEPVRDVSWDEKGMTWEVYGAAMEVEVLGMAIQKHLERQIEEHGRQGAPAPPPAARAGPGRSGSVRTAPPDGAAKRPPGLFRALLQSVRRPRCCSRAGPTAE
UniProt Q3T8J9: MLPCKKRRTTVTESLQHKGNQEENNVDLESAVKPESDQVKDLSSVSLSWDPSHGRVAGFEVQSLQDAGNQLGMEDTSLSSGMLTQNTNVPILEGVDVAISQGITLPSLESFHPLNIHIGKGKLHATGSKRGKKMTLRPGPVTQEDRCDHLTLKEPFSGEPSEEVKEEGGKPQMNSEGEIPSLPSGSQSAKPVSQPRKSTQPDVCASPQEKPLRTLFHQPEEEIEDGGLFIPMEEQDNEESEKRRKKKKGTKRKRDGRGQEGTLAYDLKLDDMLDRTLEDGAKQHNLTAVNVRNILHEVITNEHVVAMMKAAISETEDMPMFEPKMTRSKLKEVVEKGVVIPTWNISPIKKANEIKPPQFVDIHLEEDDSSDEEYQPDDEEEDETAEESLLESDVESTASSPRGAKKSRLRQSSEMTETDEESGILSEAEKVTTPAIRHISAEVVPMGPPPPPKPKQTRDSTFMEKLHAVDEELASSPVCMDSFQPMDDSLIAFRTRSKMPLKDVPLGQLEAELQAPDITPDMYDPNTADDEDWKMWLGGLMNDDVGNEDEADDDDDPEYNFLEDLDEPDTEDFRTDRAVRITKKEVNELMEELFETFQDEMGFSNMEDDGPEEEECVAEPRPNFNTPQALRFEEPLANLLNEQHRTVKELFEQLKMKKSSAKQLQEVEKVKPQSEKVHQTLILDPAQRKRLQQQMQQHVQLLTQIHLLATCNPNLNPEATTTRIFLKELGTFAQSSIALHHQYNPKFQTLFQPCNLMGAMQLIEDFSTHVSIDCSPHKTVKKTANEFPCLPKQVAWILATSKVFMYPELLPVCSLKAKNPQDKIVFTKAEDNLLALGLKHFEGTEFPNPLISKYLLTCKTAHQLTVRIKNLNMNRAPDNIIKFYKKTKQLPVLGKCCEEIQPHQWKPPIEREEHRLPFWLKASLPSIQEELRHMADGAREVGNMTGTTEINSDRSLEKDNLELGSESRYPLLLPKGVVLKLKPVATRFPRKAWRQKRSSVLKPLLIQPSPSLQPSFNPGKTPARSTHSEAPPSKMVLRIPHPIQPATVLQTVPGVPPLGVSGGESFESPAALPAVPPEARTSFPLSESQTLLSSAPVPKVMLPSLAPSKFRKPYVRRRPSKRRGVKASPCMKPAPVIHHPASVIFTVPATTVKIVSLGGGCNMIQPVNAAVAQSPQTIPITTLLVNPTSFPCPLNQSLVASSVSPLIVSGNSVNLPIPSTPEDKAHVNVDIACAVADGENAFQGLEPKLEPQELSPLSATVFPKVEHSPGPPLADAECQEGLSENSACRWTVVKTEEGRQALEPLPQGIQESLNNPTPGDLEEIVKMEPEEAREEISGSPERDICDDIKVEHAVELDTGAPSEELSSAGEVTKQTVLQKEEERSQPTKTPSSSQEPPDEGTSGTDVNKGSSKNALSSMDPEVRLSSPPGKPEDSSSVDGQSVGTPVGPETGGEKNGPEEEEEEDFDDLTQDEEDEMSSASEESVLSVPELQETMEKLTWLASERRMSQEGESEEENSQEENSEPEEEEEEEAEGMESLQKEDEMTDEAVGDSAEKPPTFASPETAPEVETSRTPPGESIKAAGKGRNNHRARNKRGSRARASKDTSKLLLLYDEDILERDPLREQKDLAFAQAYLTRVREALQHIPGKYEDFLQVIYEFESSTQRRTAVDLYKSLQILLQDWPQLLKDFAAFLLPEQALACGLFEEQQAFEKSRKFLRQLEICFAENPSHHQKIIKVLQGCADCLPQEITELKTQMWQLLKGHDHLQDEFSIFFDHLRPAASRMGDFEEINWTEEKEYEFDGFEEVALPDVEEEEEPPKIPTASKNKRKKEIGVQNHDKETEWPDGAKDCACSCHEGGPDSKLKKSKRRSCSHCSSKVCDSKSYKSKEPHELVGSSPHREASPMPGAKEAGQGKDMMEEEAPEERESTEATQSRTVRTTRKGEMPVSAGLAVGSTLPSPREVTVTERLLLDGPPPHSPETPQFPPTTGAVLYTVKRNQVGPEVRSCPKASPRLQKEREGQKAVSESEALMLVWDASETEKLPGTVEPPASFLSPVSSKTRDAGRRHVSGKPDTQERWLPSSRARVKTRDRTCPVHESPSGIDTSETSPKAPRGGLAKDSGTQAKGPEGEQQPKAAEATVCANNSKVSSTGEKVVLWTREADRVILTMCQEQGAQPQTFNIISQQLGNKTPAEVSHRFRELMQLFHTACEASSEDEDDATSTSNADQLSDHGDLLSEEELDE
UniProt Q9BQ67, whole entry, looked up: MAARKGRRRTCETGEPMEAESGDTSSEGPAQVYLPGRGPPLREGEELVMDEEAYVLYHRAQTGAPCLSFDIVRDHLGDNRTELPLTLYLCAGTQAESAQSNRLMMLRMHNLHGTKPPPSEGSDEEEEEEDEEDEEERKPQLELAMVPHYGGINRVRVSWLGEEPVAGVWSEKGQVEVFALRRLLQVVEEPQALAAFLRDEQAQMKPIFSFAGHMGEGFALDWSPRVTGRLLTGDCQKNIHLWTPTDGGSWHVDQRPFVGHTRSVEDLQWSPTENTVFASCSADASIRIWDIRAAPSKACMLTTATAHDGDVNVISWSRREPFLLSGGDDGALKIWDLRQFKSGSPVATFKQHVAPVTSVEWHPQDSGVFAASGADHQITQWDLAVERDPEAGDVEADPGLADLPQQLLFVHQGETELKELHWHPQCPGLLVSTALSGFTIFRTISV
UniProt Q04760: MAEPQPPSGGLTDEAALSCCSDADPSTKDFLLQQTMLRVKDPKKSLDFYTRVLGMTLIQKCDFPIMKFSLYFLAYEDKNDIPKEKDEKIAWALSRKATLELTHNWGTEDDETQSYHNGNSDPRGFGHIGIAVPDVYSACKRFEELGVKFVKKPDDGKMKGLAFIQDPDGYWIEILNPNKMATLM
UniProt Q9NPB8: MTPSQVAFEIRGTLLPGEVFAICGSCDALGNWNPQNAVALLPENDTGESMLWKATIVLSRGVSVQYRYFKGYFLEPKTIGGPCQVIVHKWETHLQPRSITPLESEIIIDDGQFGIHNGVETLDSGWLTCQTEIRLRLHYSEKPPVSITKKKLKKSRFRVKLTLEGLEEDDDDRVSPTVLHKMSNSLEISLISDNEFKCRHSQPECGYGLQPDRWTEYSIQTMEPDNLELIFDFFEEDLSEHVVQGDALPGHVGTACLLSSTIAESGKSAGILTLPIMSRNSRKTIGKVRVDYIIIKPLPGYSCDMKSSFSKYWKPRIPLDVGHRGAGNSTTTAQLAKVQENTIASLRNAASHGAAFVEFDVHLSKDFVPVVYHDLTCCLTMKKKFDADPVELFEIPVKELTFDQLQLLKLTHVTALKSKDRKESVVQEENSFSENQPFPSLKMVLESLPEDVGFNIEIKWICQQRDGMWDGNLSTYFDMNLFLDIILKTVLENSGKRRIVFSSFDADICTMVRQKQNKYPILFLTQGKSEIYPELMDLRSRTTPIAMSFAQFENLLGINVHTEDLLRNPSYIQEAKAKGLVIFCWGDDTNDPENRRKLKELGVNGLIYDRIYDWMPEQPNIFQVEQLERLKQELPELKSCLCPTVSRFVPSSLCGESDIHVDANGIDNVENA

log2 fold change, inactive:
GMFG (UniProt O60234) 0.07
GPN3 isoform 2 (UniProt Q9UHW5) 0.007
GINS4 (UniProt Q9BRT9) -0.015
GLG1 isoform 2 (UniProt Q92896) -0.016
GON7 (UniProt Q9BXV9) 0.015
GRB2 (UniProt P62993) -0.028
GPN1 isoform 5 (UniProt Q9HCN4) 0.043
GOSR1 (UniProt E9PCW1) -0.008
GLMN (UniProt Q92990) -0.038
GPX3 (UniProt P22352) -0.157
GINS3 (UniProt Q9BRX5) 0.001
GMPR (UniProt P36959) 0.009
GPSM3 (UniProt Q9Y4H4) 0.063
GRIPAP1 (UniProt Q4V328) -0.012
GNA13 (UniProt Q14344) 0.018
GPBP1 isoform 2 (UniProt Q86WP2) -0.064
GNE isoform 2 (UniProt Q9Y223) 0.021
GNPTAB (UniProt Q3T906) -0.167
GMNN (UniProt O75496) -0.008
GPRIN1 (UniProt Q7Z2K8) 0.018
GON4L (UniProt Q3T8J9) 0.072
GOLIM4 (UniProt O00461) 0.115
GNB4 (UniProt Q9HAV0) -0.032
GRK2 (UniProt P25098) -0.01
GRWD1 (UniProt Q9BQ67) 0.112
GNMT (UniProt Q14749) 0.096
GPR107 (UniProt Q5VW38) 0.002
GLO1 (UniProt Q04760) -0.034
GINM1 (UniProt Q9NU53) -0.037
GOLGA5 (UniProt Q8TBA6) 0.006
GPS1 (UniProt A8K070) 0.007
GSDME (UniProt O60443) 0.153
GPCPD1 (UniProt Q9NPB8) 0.093

No new results follow: entries from further up.
log2 fold change, inactive:
GMPR (UniProt P36959) 0.009
GPSM3 (UniProt Q9Y4H4) 0.063

Source: the supplement of paper PMC10849652
